Reference: article doi:10.1101/2021.02.20.432055
Results are given in words; binding and its absence hold for the method and conditions named. Binding seen in cells or lysates may run through a third protein. Some results given as binding are weak or reduced against the parent protein; the word gives no strength. Sequences can lack the tags named with a protein.

Amino acid sequences for entries named in this document (tags omitted).
UniProt Q8TD26: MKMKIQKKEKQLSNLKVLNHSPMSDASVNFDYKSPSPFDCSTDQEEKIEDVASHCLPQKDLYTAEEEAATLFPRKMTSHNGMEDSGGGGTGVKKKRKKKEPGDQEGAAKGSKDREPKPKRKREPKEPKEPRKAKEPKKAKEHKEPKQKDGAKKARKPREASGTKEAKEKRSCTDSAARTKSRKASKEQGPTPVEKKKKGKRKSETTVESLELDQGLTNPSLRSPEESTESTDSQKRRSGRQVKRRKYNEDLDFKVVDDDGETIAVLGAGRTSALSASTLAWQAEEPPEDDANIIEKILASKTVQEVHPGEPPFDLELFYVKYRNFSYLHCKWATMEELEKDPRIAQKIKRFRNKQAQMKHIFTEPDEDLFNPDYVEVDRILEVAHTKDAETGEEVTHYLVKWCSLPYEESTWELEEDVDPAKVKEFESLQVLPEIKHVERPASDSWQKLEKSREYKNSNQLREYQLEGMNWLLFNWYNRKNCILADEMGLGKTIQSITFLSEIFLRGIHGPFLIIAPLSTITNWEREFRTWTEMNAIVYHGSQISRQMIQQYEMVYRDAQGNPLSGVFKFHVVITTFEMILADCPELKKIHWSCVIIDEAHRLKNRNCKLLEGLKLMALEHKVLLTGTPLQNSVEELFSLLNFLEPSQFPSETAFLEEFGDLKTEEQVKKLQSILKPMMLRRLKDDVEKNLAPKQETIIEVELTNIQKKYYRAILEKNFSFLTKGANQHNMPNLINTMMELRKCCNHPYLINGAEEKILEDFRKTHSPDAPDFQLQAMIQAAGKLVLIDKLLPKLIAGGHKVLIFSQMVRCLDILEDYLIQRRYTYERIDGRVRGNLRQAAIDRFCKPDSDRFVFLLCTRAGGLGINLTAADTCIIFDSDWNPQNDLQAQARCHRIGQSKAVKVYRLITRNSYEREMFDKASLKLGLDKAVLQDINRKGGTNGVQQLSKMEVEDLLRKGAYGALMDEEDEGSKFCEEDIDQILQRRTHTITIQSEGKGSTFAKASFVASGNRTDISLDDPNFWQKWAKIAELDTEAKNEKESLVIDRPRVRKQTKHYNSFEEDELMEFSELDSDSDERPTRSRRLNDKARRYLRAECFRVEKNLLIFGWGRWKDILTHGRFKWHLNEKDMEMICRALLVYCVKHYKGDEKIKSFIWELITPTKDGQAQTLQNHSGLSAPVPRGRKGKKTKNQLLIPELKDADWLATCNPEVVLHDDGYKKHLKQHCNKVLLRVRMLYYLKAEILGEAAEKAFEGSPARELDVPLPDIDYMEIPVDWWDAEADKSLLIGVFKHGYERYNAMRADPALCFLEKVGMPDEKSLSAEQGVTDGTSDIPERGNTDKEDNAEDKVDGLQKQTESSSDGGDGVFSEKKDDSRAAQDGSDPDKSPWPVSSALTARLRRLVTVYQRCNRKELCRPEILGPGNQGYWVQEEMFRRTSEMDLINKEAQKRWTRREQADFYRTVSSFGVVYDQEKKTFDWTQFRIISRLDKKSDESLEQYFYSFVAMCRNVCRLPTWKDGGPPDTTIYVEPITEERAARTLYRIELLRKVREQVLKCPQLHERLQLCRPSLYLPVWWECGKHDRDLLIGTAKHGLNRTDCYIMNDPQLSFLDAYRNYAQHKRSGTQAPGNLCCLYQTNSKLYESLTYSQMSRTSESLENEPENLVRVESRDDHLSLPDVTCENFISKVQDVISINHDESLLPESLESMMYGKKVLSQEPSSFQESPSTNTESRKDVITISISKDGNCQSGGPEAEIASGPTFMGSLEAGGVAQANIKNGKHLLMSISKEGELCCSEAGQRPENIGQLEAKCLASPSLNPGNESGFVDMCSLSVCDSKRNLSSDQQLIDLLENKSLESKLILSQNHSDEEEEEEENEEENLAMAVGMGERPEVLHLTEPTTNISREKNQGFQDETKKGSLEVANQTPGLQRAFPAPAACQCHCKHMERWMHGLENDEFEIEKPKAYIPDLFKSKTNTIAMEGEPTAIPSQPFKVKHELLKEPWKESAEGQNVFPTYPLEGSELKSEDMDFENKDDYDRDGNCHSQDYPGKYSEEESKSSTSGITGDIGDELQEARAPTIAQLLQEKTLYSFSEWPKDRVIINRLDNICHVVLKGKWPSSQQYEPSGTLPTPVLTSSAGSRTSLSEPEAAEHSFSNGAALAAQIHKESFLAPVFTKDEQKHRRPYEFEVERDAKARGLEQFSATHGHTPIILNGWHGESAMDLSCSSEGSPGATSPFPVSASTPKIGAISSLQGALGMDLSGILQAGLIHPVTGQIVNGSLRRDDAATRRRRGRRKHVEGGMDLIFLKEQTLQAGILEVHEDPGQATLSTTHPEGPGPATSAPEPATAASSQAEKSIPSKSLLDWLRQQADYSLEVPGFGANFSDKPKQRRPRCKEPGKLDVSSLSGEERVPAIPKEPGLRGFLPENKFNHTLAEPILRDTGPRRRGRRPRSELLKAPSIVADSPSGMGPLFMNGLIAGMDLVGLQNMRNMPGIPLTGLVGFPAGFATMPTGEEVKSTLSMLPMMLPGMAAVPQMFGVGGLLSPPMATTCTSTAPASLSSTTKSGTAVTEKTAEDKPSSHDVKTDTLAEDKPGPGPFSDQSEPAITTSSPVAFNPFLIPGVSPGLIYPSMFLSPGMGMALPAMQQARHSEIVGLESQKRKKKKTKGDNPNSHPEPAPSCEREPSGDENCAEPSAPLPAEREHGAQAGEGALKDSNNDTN

B1: MCM3 (protein, UniProt P25205 1-808)
chain: MAGTVVLDDVELREAQRDYLDFLDDEEDQGIYQSKVRELISDNQYRLIVNVNDLRRKNEKRANRLLNNAFEELVAFQRALKDFVASIDATYAKQYEEFYVGLEGSFGSKHVSPRTLTSCFLSCVVCVEGIVTKCSLVRPKVVRSVHYCPATKKTIERRYSDLTTLVAFPSSSVYPTKDEENNPLETEYGLSVYKDHQTITIQEMPEKAPAGQLPRSVDVILDDDLVDKAKPGDRVQVVGTYRCLPGKKGGYTSGTFRTVLIACNVKQMSKDAQPSFSAEDIAKIKKFSKTRSKDIFDQLAKSLAPSIHGHDYVKKAILCLLLGGVERDLENGSHIRGDINILLIGDPSVAKSQLLRYVLCTAPRAIPTTGRGSSGVGLTAAVTTDQETGERRLEAGAMVLADRGVVCIDEFDKMSDMDRTAIHEVMEQGRVTIAKAGIHARLNARCSVLAAANPVYGRYDQYKTPMENIGLQDSLLSRFDLLFIMLDQMDPEQDREISDHVLRMHRYRAPGEQDGDAMPLGSAVDILATDDPNFSQEDQQDTQIYEKHDNLLHGTKKKKEKMVSAAFMKKYIHVAKIIKPVLTQESATYIAEEYSRLRSQDSMSSDTARTSPVTARTLETLIRLATAHAKARMSKTVDLQDAEEAVELVQYAYFKKVLEKEKKRKKRSEDESETEDEEEKSQEDQEQKRKRRKTRQPDAKDGDSYDPYDFSDTEEEMPQVHTPKTADSQETKESQKVELSESRLKAFKVALLDVFREAHAQSIGMNRLTESINRDSEEPFSSVEIQAALSKMQDDNQVMVSEGIIFLI
B2: ESYT2 (protein, UniProt A0FGR8 1-921)
chain: MTANRDAALSSHRHPGCAQRPRTPTFASSSQRRSAFGFDDGNFPGLGERSHAPGSRLGARRRAKTARGLRGHRQRGAGAGLSRPGSARAPSPPRPGGPENPGGVLSVELPGLLAQLARSFALLLPVYALGYLGLSFSWVLLALALLAWCRRSRGLKALRLCRALALLEDEERVVRLGVRACDLPAWVHFPDTERAEWLNKTVKHMWPFICQFIEKLFRETIEPAVRGANTHLSTFSFTKVDVGQQPLRINGVKVYTENVDKRQIILDLQISFVGNCEIDLEIKRYFCRAGVKSIQIHGTMRVILEPLIGDMPLVGALSIFFLRKPLLEINWTGLTNLLDVPGLNGLSDTIILDIISNYLVLPNRITVPLVSEVQIAQLRFPVPKGVLRIHFIEAQDLQGKDTYLKGLVKGKSDPYGIIRVGNQIFQSRVIKENLSPKWNEVYEALVYEHPGQELEIELFDEDPDKDDFLGSLMIDLIEVEKERLLDEWFTLDEVPKGKLHLRLEWLTLMPNASNLDKVLTDIKADKDQANDGLSSALLILYLDSARNLPSGKKISSNPNPVVQMSVGHKAQESKIRYKTNEPVWEENFTFFIHNPKRQDLEVEVRDEQHQCSLGNLKVPLSQLLTSEDMTVSQRFQLSNSGPNSTIKMKIALRVLHLEKRERPPDHQHSAQVKRPSVSKEGRKTSIKSHMSGSPGPGGSNTAPSTPVIGGSDKPGMEEKAQPPEAGPQGLHDLGRSSSSLLASPGHISVKEPTPSIASDISLPIATQELRQRLRQLENGTTLGQSPLGQIQLTIRHSSQRNKLIVVVHACRNLIAFSEDGSDPYVRMYLLPDKRRSGRRKTHVSKKTLNPVFDQSFDFSVSLPEVQRRTLDVAVKNSGGFLSKDKGLLGKVLVALASEELAKGWTQWYDLTEDGTRPQAMT
B3: CTCF (protein, UniProt P49711 1-727)
chain: MEGDAVEAIVEESETFIKGKERKTYQRRREGGQEEDACHLPQNQTDGGEVVQDVNSSVQMVMMEQLDPTLLQMKTEVMEGTVAPEAEAAVDDTQIITLQVVNMEEQPINIGELQLVQVPVPVTVPVATTSVEELQGAYENEVSKEGLAESEPMICHTLPLPEGFQVVKVGANGEVETLEQGELPPQEDPSWQKDPDYQPPAKKTKKTKKSKLRYTEEGKDVDVSVYDFEEEQQEGLLSEVNAEKVVGNMKPPKPTKIKKKGVKKTFQCELCSYTCPRRSNLDRHMKSHTDERPHKCHLCGRAFRTVTLLRNHLNTHTGTRPHKCPDCDMAFVTSGELVRHRRYKHTHEKPFKCSMCDYASVEVSKLKRHIRSHTGERPFQCSLCSYASRDTYKLKRHMRTHSGEKPYECYICHARFTQSGTMKMHILQKHTENVAKFHCPHCDTVIARKSDLGVHLRKQHSYIEQGKKCRYCDAVFHERYALIQHQKSHKNEKRFKCDQCDYACRQERHMIMHKRTHTGEKPYACSHCDKTFRQKQLLDMHFKRYHDPNFVPAAFVCSKCGKTFTRRNTMARHADNCAGPDGVEGENGGETKKSKRGRKRKMRSKKEDSSDSENAEPDLDDNEDEEEPAVEIEPEPEPQPVTPAPPPAKKRRGRPPGRTNQPKQNQPTAIIQVEDQNTGAIENIIVEVKKEPDAEPAEGEEEEAQPAATDAPNGDLTPEMILSMMDR

Tests used:
[1] = target: T1, SA1 (Stromalin Antigen 1, STAG1) (human (endogenous in HCT116)) (UniProt Q8WVM7); assay: co-IP
T1 sequence: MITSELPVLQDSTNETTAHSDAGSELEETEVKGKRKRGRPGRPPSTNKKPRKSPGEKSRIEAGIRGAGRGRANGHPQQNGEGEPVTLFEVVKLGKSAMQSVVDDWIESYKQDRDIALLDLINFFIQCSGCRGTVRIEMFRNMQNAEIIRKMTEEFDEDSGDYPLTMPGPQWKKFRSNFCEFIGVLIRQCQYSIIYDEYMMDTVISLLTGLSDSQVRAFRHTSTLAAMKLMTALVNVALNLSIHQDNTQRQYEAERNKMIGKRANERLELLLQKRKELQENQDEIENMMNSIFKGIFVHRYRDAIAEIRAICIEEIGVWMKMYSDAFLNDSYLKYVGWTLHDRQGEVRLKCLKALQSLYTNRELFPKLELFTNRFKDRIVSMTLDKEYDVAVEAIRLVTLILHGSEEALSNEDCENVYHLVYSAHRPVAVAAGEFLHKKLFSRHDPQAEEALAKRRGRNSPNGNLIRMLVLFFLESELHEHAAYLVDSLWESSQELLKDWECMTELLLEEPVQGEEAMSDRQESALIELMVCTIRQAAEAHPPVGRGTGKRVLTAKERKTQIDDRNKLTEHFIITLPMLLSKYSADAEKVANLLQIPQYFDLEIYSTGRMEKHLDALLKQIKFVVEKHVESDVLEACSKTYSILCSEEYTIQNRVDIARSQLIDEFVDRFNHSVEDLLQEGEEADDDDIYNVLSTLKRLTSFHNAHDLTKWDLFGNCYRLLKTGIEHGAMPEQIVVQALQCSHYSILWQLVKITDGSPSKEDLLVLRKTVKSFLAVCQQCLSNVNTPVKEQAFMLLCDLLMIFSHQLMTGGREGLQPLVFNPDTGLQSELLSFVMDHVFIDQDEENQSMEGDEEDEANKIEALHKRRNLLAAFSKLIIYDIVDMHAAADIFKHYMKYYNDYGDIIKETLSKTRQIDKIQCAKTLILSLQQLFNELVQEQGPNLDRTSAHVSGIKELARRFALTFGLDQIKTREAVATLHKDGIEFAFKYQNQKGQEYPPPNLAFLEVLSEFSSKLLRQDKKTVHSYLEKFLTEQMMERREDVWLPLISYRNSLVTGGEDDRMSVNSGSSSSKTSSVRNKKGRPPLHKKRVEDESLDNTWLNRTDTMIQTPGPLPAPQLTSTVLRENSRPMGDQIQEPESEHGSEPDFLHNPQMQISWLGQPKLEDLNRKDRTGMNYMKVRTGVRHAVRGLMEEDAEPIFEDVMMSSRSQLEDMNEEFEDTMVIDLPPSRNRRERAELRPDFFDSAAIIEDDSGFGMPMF

[2] = target: T2, SA2 (Stromalin Antigen 2, STAG2) (human (endogenous in HCT116)) (UniProt Q8N3U4); assay: co-IP
T2 sequence: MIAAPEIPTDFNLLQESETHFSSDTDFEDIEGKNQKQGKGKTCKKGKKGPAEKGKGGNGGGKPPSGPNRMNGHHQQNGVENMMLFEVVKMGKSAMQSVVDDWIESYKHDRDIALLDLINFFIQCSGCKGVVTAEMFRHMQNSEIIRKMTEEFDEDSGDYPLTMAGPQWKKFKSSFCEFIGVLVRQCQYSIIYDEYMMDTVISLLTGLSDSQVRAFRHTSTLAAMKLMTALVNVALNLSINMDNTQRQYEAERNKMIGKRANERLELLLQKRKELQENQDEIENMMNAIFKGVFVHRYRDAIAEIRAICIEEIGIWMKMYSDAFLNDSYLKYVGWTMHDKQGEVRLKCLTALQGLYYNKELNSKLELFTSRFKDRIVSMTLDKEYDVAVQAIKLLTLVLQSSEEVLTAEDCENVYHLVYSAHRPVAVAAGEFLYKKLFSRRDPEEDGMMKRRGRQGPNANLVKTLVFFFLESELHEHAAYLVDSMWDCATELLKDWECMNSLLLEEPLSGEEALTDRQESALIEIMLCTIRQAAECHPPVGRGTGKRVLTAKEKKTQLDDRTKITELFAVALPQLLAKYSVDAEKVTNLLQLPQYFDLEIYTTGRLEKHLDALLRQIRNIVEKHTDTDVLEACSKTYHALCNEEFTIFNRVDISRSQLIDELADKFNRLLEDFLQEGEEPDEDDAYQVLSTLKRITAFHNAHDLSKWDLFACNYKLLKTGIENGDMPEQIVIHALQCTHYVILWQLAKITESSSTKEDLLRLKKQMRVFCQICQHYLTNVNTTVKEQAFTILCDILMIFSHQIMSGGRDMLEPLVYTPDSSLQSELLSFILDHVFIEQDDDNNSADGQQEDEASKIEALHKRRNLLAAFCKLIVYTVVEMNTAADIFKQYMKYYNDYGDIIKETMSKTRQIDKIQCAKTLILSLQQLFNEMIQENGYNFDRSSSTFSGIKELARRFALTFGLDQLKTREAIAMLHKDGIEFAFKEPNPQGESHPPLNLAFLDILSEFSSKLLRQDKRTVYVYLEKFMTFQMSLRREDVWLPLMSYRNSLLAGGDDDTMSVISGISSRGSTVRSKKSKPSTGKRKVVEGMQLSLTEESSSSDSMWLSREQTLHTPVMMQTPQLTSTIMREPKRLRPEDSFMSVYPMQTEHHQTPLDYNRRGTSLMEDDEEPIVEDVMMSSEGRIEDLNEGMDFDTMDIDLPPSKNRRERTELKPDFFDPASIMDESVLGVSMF

Molecule	binding [1]	binding [2]
CHD6 (from UniProt Q8TD26 1-2715)	binds	binds weakly
B1	binds	binds weakly
B2	binds	
B3		binds
